# Assay results published in patent US20220098310A1 (Alexion, published 2022).
# Positions count from the first letter of the chain named. These are yes or no findings as the source states them, for the method shown. Some results given as binding are weak or reduced against the parent protein; the word gives no strength.
# B1: JAB0501 (antibody, mouse IgG1, kappa, V domains shown)
# VH: EVQLQQSGAELVRPGASVRLSCTASGFNIKDSLMHWVKQRPEQGLEWIGWIDPEDGETKYAPNFQSKATITAVTSSNTAYLQLSSLTSEDSAIYYCARYTSPYYTMDYWGQGTSVTVSS
# VL: DIQMTQSPASQSASLGESVTFTCLASQTIGTWLAWYQQKPGKSPQLLIYAATSLADGVPSRFSGSGSGTKFSFKISSLQAEDFASYYCQQVYSTPWTFGGGTKLEIKR
# B2: JAB0505 (antibody, mouse IgG1, kappa, V domains shown)
# VH: B1 VH with K59R, S66D, P102R, D107E
# VL: B1 VL with V91L, S93W
# notes: also called antibody JAB0505
# Biological target: T1, recombinant human ALK2 extracellular domain (Creative Biomart catalog number ACVR1-01H) (human) (UniProt Q04771)
# T1 sequence: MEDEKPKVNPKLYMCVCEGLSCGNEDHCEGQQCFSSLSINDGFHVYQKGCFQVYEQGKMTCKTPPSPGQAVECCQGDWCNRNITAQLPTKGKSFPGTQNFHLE
# Test: surface plasmon resonance (Biacore), normalised overlaid sensorgrams, captured antibody, 250 nM ALK2 ECD (ACVR1) injected
row,Binder,binding
1,B1,binds
2,B2,binds
